Laboratory results: paper PMC12656327 (Pharmaceutics, 2025)

Test: NO release, Griess assay (phosphate buffer pH 7.4 with L-cysteine)
Type: physicochemical
Details: for Fold Change 24 h/1 h: ratio of NO released 24 h/1 h; for Fold Change 48 h/1 h: ratio of NO released 48 h/1 h; for Fold Change 48 h/24 h: ratio of NO released 48 h/24 h

[O-][n+]1onc(-c2noc(-c3ccncc3)n2)c1-c1noc(-c2ccncc2)n1 [2f]
Fold Change 24 h/1 h: 1.3
Fold Change 48 h/1 h: 1.5
Fold Change 48 h/24 h: 1.1

Cc1ccc(-c2nc(-c3no[n+]([O-])c3-c3noc(-c4ccc(C)cc4)n3)no2)cc1 [2h]
Fold Change 24 h/1 h: 1.4
Fold Change 48 h/1 h: 1.5
Fold Change 48 h/24 h: 1.1

[O-][n+]1onc(-c2noc(-c3ccccc3)n2)c1-c1noc(-c2ccccc2)n1 [2e]
Fold Change 24 h/1 h: 1.2
Fold Change 48 h/1 h: 1.3
Fold Change 48 h/24 h: 1.1

COc1ccc(-c2nc(-c3no[n+]([O-])c3-c3noc(-c4ccc(OC)c(OC)c4)n3)no2)cc1OC [2j]
Fold Change 24 h/1 h: 1.1
Fold Change 48 h/1 h: 1.1
Fold Change 48 h/24 h: 1.1

O=[N+]([O-])c1cccc(-c2nc(-c3no[n+]([O-])c3-c3noc(-c4cccc([N+](=O)[O-])c4)n3)no2)c1 [2c]
Fold Change 24 h/1 h: 1.3
Fold Change 48 h/1 h: 1.7
Fold Change 48 h/24 h: 1.3

COc1ccc(-c2nc(-c3no[n+]([O-])c3-c3noc(-c4ccc(OC)cc4)n3)no2)cc1 [2i]
Fold Change 24 h/1 h: 1.0
Fold Change 48 h/1 h: 1.2
Fold Change 48 h/24 h: 1.1

[O-][n+]1onc(-c2noc(-c3ccccc3Cl)n2)c1-c1noc(-c2ccccc2Cl)n1 [2k]
Fold Change 24 h/1 h: 1.1
Fold Change 48 h/1 h: 1.2
Fold Change 48 h/24 h: 1.0

O=[N+]([O-])c1ccccc1-c1nc(-c2no[n+]([O-])c2-c2noc(-c3ccccc3[N+](=O)[O-])n2)no1 [2d]
Fold Change 24 h/1 h: 1.3
Fold Change 48 h/1 h: 1.3
Fold Change 48 h/24 h: 1.0

O=[N+]([O-])c1ccc(-c2nc(-c3no[n+]([O-])c3-c3noc(-c4ccc([N+](=O)[O-])cc4)n3)no2)cc1 [2b]
Fold Change 24 h/1 h: 1.2
Fold Change 48 h/1 h: 1.3
Fold Change 48 h/24 h: 1.0
